Measured values as given in PubChem BioAssay AID248 (DTP/NCI, 2004).
The list shows only some results of the screen, not a fair sample: it gathers tests that were run many times, whatever their T/C, doses with no T/C, and many T/C values between a quarter and a half above the control. Further doses and runs are listed elsewhere. T/C is the treated group as % of the vehicle group. Some doses have a count of surviving animals in place of a T/C: the source holds a T/C of zero for them, seemingly a mark for toxic or unscored doses. Some doses without a T/C left all or most animals alive at the check, yet need not have been tolerated: survival well below the control is almost never listed, so the zero probably covers shortened survival too. Counts of survivors are from the toxicity check (mostly the fifth day) where no day follows; animals may have died later. Schedule codes are those of the source, taken here to give the interval after Q, in days (D) or hours (H), and the number of doses after X. Some doses were run more than once; the values are given in rising order. Some schedule codes hold Z or #, which are not explained here. For survival time, the PubChem record calls one and a half times the control and up active, and a quarter to a half above the control has no call in these data; cut-offs in other NCI protocols can differ. Some T/C values are followed by the survivors on the day toxicity was checked, most often the fifth; without a count, all were alive then.

Tested on: L1210 leukemia ip in BDF1 mice, survival T/C
Assay: NCI In Vivo Anticancer Drug Screen. Data for tumor model L1210 Leukemia (intraperitoneal) in B6D2F1 (BDF1) mice
Details: T/C endpoint: mean survival time, higher T/C = longer survival
[1] = dose: 200.0 mg/kg/injection, schedule: Q01DX001 (ip), vehicle: saline
[2] = dose: 400.0 mg/kg/injection, schedule: Q01DX001 (ip), vehicle: saline
[3] = dose: 200.0 mg/kg/injection, schedule: Q01DX009 (ip), vehicle: saline
[4] = dose: 200.0 mg/kg/injection, schedule: Q01DX009 (ip), vehicle: Klucel (hydroxypropylcellulose) (HPC)
[5] = dose: 400.0 mg/kg/injection, schedule: Q04DX003 (ip), vehicle: Klucel (hydroxypropylcellulose) (HPC)
[6] = dose: 200.0 mg/kg/injection, schedule: Q04DX003 (ip), vehicle: saline
[7] = dose: 200.0 mg/kg/injection, schedule: Q04DX003 (ip), vehicle: Klucel (hydroxypropylcellulose) (HPC)
[8] = dose: 400.0 mg/kg/injection, schedule: Q01DX009 (ip), vehicle: saline with Tween-80
[9] = dose: 300.0 mg/kg/injection, schedule: Q01DX001 (ip), vehicle: saline
[10] = dose: 400.0 mg/kg/injection, schedule: Q01DX001 (ip), vehicle: carboxymethylcellulose (CMC)
[11] = dose: 400.0 mg/kg/injection, schedule: Q01DX009 (ip), vehicle: carboxymethylcellulose (CMC)
[12] = dose: 100.0 mg/kg/injection, schedule: Q01DX009 (ip), vehicle: saline with Tween-80
[13] = dose: 100.0 mg/kg/injection, schedule: Q04DX003 (ip), vehicle: saline with Tween-80
[14] = dose: 400.0 mg/kg/injection, schedule: Q04DX003 (ip), vehicle: saline with Tween-80
[15] = dose: 25.0 mg/kg/injection, schedule: Q04DX003 (ip), vehicle: saline with Tween-80
[16] = dose: 50.0 mg/kg/injection, schedule: Q04DX003 (ip), vehicle: saline with Tween-80

N/C(=N/N=C/c1ccc(N(CCCl)CCCl)cc1)N[N+](=O)[O-]
survivor count (dose: 60.0 mg/kg/injection, schedule: Q01DX Z (oral), vehicle: methylcellulose (MC)): 3 of 6
survivor count (dose: 120.0 mg/kg/injection, schedule: Q01DX Z (oral), vehicle: methylcellulose (MC)): 1 of 6
survivor count (dose: 240.0 mg/kg/injection, schedule: Q01DX Z (oral), vehicle: methylcellulose (MC)): 2 of 6
survivor count (dose: 480.0 mg/kg/injection, schedule: Q01DX Z (oral), vehicle: methylcellulose (MC)): 2 of 6

CCCCC(CC)COP(=O)(OCC(CC)CCCC)c1ccccc1 (centres undefined)
survivor count [1]: 2 of 4
survivor count [2]: 0 of 4

CC(C)=CC(=O)CC(O)(C(F)(F)F)C(F)(F)Cl (centres undefined)
survivor count [3]: 6 of 6

CCn1nnc2c(N(C)C)nc(N)nc21
survivor count [4]: 2 of 6
survivor count [5]: 1 of 6

CS(=O)(=O)OCCN(CCOS(C)(=O)=O)c1ccc(N=O)c(F)c1
T/C (dose: 5.0 mg/kg/injection, schedule: Q01DX001 (ip), vehicle: saline): 137 and 146 % of control
T/C (dose: 10.0 mg/kg/injection, schedule: Q01DX001 (ip), vehicle: saline): 137 and 145 % of control [5 of 6 alive]
T/C (dose: 15.0 mg/kg/injection, schedule: Q01DX001 (ip), vehicle: saline): 135 % of control [5 of 6 alive]
T/C (dose: 20.0 mg/kg/injection, schedule: Q01DX001 (ip), vehicle: saline): 133 % of control
survivor count (dose: 50.0 mg/kg/injection, schedule: Q01DX001 (ip), vehicle: saline): 1 of 4
survivor count (dose: 100.0 mg/kg/injection, schedule: Q01DX001 (ip), vehicle: saline): 0 of 4
survivor count [1]: 0 of 4
survivor count [2]: 0 of 4

CN(C)C1CC[N-]CC1.CN(C)C1CC[N-]CC1.[Cl][Pt+2][Cl]
survivor count (dose: 100.0 mg/kg/injection, schedule: Q01DX009 (ip), vehicle: saline): 2 of 6
survivor count [6]: 3 of 6
survivor count (dose: 400.0 mg/kg/injection, schedule: Q04DX003 (ip), vehicle: saline): 0 of 6

CCOC(=O)/C(C#N)=C\c1cccs1
survivor count [7]: 0 of 3
survivor count [5]: 0 of 3

CC1N=C(N)NC(=O)C1c1ccc(Cl)cc1 (centres undefined)
survivor count [8]: 2 of 6

CCCCC(=O)NC1CCCCC1
survivor count [9]: 0 of 6

O=C(O)c1ccc(OCCOc2ccc([N+](=O)[O-])cc2)c(Cl)c1
survivor count [10]: 1 of 3
survivor count [11]: 0 of 6 and 1 of 3

OC1(c2ccccc2)CC2CC1c1ccccc12 (centres undefined)
survivor count (dose: 50.0 mg/kg/injection, schedule: Q01DX001 (ip), vehicle: carboxymethylcellulose (CMC)): 4 of 4

CCOC(=O)N1C(=O)C2C3CCC(O3)C2C1=O (centres undefined)
survivor count [12]: 0 of 3

COc1ccc(C(O)CNC(=O)c2ccccc2)cc1 (centres undefined)
survivor count [7]: 6 of 6

CCOC(=O)NNC(=O)Nc1ccc(Cl)c([N+](=O)[O-])c1
survivor count (dose: 400.0 mg/kg/injection, schedule: Q01DX009 (ip), vehicle: saline): 3 of 6

CCCN(C(=O)N([Si](C)(C)C)S(=O)(=O)c1ccc(Cl)cc1)[Si](C)(C)C
survivor count [3]: 3 of 3

COc1ccc2nc3ccccc3c(NCCCN(C)C)c2c1
survivor count (dose: 80.0 mg/kg/injection, schedule: Q01DX001 (ip), vehicle: saline): 3 of 4

O=[As](O)(CC(O)c1ccccc1)c1ccc(Cl)cc1 (centres undefined)
survivor count (dose: 50.0 mg/kg/injection, schedule: Q01DX001 (ip), vehicle: saline with Tween-80): 0 of 6
survivor count (dose: 100.0 mg/kg/injection, schedule: Q01DX001 (ip), vehicle: saline with Tween-80): 0 of 6
survivor count (dose: 200.0 mg/kg/injection, schedule: Q01DX001 (ip), vehicle: saline with Tween-80): 0 of 6
survivor count (dose: 400.0 mg/kg/injection, schedule: Q01DX001 (ip), vehicle: saline with Tween-80): 0 of 6

COC(=O)C1CC(C2c3ccccc3-c3ccccc32)CCC1N (centres undefined)
survivor count [13]: 6 of 6
survivor count [14]: 1 of 6

CCCCCCCCCCCCCCCC[N+](C)(C)CCCCCCCCCCCCCCCC
survivor count [15]: 1 of 3
survivor count [16]: 0 of 3
survivor count (dose: 50.0 mg/kg/injection, schedule: Q04DX003 (ip), vehicle: saline): 3 of 3
survivor count (dose: 100.0 mg/kg/injection, schedule: Q04DX003 (ip), vehicle: saline): 1 of 3
survivor count [6]: 0 of 3

O=NN(CCCl)C(=O)Nc1ccc2c3c(cccc13)-c1ccccc1-2
T/C (dose: 177.0 mg/kg/injection, schedule: Q01DX001 (ip), vehicle: carboxymethylcellulose (CMC)): 128 % of control
T/C (dose: 266.0 mg/kg/injection, schedule: Q01DX001 (ip), vehicle: carboxymethylcellulose (CMC)): 132 % of control
T/C [10]: 140 % of control
T/C [11]: 125 % of control [5 of 6 alive]
T/C (dose: 500.0 mg/kg/injection, schedule: Q01DX009 (ip), vehicle: carboxymethylcellulose (CMC)): 140 % of control [5 of 6 alive]

O=NN1CCCC1C(=O)O (centres undefined)
survivor count [2]: 1 of 4 and 2 of 4

O=C(Nc1ccc(C(=O)O)cc1)Nc1ccccc1F
survivor count [4]: 3 of 3

CC(C)C[C@H]1C(=O)N2CCC[C@H]2[C@]2(O)O[C@](NC(=O)[C@@H]3C=C4c5cccc6[nH]c(Br)c(c56)C[C@H]4N(C)C3)(C(C)C)C(=O)N12
survivor count [8]: 0 of 6

CC(=O)[O][Sn]([CH2]c1ccccc1)([CH2]c1ccccc1)[CH2]c1ccccc1
survivor count (dose: 6.0 mg/kg/injection, schedule: Q04DX004 (ip), vehicle: saline with Tween-80): 1 of 6
survivor count (dose: 12.0 mg/kg/injection, schedule: Q04DX004 (ip), vehicle: saline with Tween-80): 0 of 6
survivor count [15]: 5 of 6
survivor count (dose: 25.0 mg/kg/injection, schedule: Q04DX004 (ip), vehicle: saline with Tween-80): 2 of 6
survivor count (dose: 50.0 mg/kg/injection, schedule: Q01DX009 (ip), vehicle: saline with Tween-80): 0 of 6 and 1 of 6
survivor count [16]: 0 of 6
survivor count [12]: 0 of 6
survivor count [13]: 0 of 6 and 4 of 6
survivor count (dose: 200.0 mg/kg/injection, schedule: Q01DX009 (ip), vehicle: saline with Tween-80): 0 of 6
survivor count (dose: 200.0 mg/kg/injection, schedule: Q04DX003 (ip), vehicle: saline with Tween-80): 0 of 6
survivor count [14]: 0 of 6

C[n+]1ccc(Cl)c2ccc(Cl)cc21
survivor count (dose: 75.0 mg/kg/injection, schedule: Q01DX001 (ip), vehicle: saline): 1 of 6
survivor count (dose: 150.0 mg/kg/injection, schedule: Q01DX001 (ip), vehicle: saline): 0 of 6
survivor count [9]: 0 of 6

CC1Cc2c(Cl)cc(C(=O)NC(Cc3ccccc3)C(=O)O)c(O)c2C(=O)O1 (centres undefined)
survivor count (dose: 200.0 mg/kg/injection, schedule: Q01DX001 (ip), vehicle: carboxymethylcellulose (CMC)): 1 of 6

Cc1nc(N)nc(N)c1-c1ccc([N+](=O)[O-])cc1
survivor count [10]: 1 of 4

ClCCCN1CCN(CCCCl)CC1
survivor count (dose: 200.0 mg/kg/injection, schedule: Q01DX009 (ip), vehicle: distilled water + alcohol): 0 of 10

COc1ccc(N(C)CC(O)CN)cc1 (centres undefined)
survivor count [2]: 0 of 6

Cc1cccc(SC(=O)Nc2cccc(Cl)c2C)c1
survivor count (dose: 200.0 mg/kg/injection, schedule: Q01DX009 (ip), vehicle: gum acacia): 5 of 6
survivor count (dose: 400.0 mg/kg/injection, schedule: Q01DX009 (ip), vehicle: gum acacia): 0 of 6

CSC(=S)NNC(=O)c1cccc([N+](=O)[O-])c1
survivor count (dose: 100.0 mg/kg/injection, schedule: Q04DX003 (ip), vehicle: Klucel (hydroxypropylcellulose) (HPC)): 0 of 6
survivor count [7]: 0 of 6
survivor count [5]: 0 of 6
